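Genome-wide siRNA knockdown in TC32 Ewing sarcoma cells, comparing luciferase light from an NR0B1-promoter reporter with a CMV-promoter reporter 48 hours after transfection. Each siRNA was applied at 20 nM. A z-score of the log NR0B1-over-CMV signal, less the median of siRNAs with the same seed; more negative means a stronger specific loss of the NR0B1 reporter.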

This is part of the screen; most of the strongest results are not listed here. Sequences are the guide (antisense) strand, without overhang.

siRNA,gene,seed-corrected z-score
UCUGCUAGGAGCAUGUUGC,PIK3IP1,0.8078
UUUGUCAGUAGAUACUCUG,CDADC1,-0.3685
UUUGAUAGAACCUUCAAAG,NPC1L1,-0.5487
UUCGAGAUUAUCUUUCUGC,DGCR14,-0.2751
AUUGCGAUUCUGUUGUUCC,BBS12,-1.022
UUAGGCUUGAUCAGUGAUG,SLC13A4,-0.06087
UUCGGUCAAGGAACUGAAC,LYSMD3,1.321
UCGUAGUUGAGGCACAUCU,MUC5AC,-0.9054
AAGCGAACUAUCUCCUUUG,LETM2,-1.103
UUACUGCCCGGAAACCUCU,HIST1H3G,0.9435
UCAGAUACAAGUAGUCACC,NOX5,0.04991
UUUGAUAAUCAUGACAAGG,CFAP20,0.7545
UUCACUUGCAGGUUGACCA,RHOD,-0.08093
AGAGUCAUCAGCUGUCUGC,ARHGEF18,0.08195
UCAAGAUACAAUAACUUGC,SAT1,-0.1901
UCAAAUCUGACUGCGUUCC,CA5B,-0.02938
UGUACCAUUAAUCAUGUCG,CD36,-0.3454
AUCGUCUUGAUUUCCGCUC,WDR59,-1.092
UUGGUAGGGACGGAACUCG,COX6A2,-0.2943
UGAGUUGUAACUCCGGCAG,DPF3,0.8333
UCUUGGGUCAGUCUUCAGC,LOC401554,-1.493
UAAAUAUGACUCUACGUGA,HNRNPA1P4,-0.06555
UCUAAAACUGUUAGAAUCC,ETNPPL,0.008685
UGUGGAGUCGGCACAGUUC,ATP6V0E1,0.2078
UCAACUCUUUUUAAUGAGC,SPP2,-0.9141
UUCAGAGUCAGAUUGCUGA,LY9,-0.1038
UAGUCGCCCAGUUCAAUGG,ANKS1B,0.3298
UAUUCAGUAGACUUGAUAC,CENPQ,1.168
UCUGGGUCCACAUCAGGUC,MIOX,-0.1336
ACUGUUGAAAUUCAGGGCC,IL12A,0.991
UUUAGUUGACGAACUCUGG,PKD2L2,1.183
UAGAUGUCAAAAUCACGGG,SGPL1,0.551
AAUAAGUAUAGUCAAAUUG,CCR1,-0.5613
UGAGUCACGACAGCUCUUG,FFAR4,-1.425
UCACCUUGUUCUACCAUUC,ADAM10,-0.1004
UCAGCAAAUGCGUAAGGCC,RHOG,0.1969
UCAGUGACCGGAUGAUGCC,CCDC61,0.2128
UGUGGUGGAGUCAAGAUCG,TCF23,-0.0646
UGUAGGACACGCUCUCUCC,SIRPA,0.2181
UGAUUAAGAGGUACCAGUC,HEATR6,1.088
AUUUAUACACCUGCUCUCC,ZNF833P,-1.054
AUUCGUAUCUUUGUGAUCG,RPL29,0.2333
UUCAUAAUCUGCGAAGACU,PYGM,0.2724
AUAGUGUUACUCUGGAUUG,PCK2,1.189
UCUGGAUAUGUAAACACGC,STAC,0.8703
UGUCCUAUUCCUUCGCUGC,PRRX1,0.02608
UGAAAGGAGAUGGUAGCCC,SLC23A3,0.06502
ACCUGUAUCUCAAUUGUGC,PCDHA5,0.01385
UUUGGACCGAGCAUCAGUG,HMCN1,1.385
UGUAGUUCUGUGGUGUCGU,IGDCC4,0.09283
UUAAGUUCAGAAGGCAUUG,WDR87,-1.61
UAGUUCUCCACAUCCGGUG,MYOC,-0.7298
AAACCGGAACUCUCGAUGG,BMP7,-0.0702
UCUUGCCUCAGGAAGACUG,THSD1,-0.238
UGGAAUCCCGCGUUGAUGC,TFAP4,0.6281
UUUUGUACAAGAGCCUUUU,RBM33,0.05276
UUGGGUGAGUCCUUAGUCG,MAGED2,-0.737
UUUCUGUCCUGCAUCACCU,COL18A1,-0.2454
UUGUUGACUAUGAAUGGAC,MUC12,0.1905
UUGGGUGCUAGGGCAGAUG,IFRD2,-0.8331

6 of the entries, repeated:

{"sirna": "UUUGAUAAUCAUGACAAGG", "gene": "CFAP20", "seed-corrected z-score": "0.7545"}
{"sirna": "UUUGAUAGAACCUUCAAAG", "gene": "NPC1L1", "seed-corrected z-score": "-0.5487"}
{"sirna": "AUUGCGAUUCUGUUGUUCC", "gene": "BBS12", "seed-corrected z-score": "-1.022"}
{"sirna": "UUACUGCCCGGAAACCUCU", "gene": "HIST1H3G", "seed-corrected z-score": "0.9435"}
{"sirna": "AGAGUCAUCAGCUGUCUGC", "gene": "ARHGEF18", "seed-corrected z-score": "0.08195"}
{"sirna": "UCAACUCUUUUUAAUGAGC", "gene": "SPP2", "seed-corrected z-score": "-0.9141"}

From PubChem BioAssay record AID1159506 (NCATS, 2015).